For three molecules, binding results are on record in publication PMC3312915.

What all share (experiment): co-IP; HepG2.2.2.15 cells pulse-labelled 30 min with 35S-Met/Cys, lysed in 2% CHAPS, 50 mM HEPES pH 7.5, 200 mM NaCl, 2 mM EDTA; immunoprecipitated with anti-EDEM1 or anti-S Abs overnight at 4°C, protein A-Sepharose; SDS-PAGE and autoradiography; controls HepG2 cells and beads only
Experiment [1] has as its target T1, ER degradation-enhancing, mannosidase-like protein 1 (EDEM1), endogenous (human (endogenous in HepG2.2.2.15)) (UniProt Q92611).
T1 sequence: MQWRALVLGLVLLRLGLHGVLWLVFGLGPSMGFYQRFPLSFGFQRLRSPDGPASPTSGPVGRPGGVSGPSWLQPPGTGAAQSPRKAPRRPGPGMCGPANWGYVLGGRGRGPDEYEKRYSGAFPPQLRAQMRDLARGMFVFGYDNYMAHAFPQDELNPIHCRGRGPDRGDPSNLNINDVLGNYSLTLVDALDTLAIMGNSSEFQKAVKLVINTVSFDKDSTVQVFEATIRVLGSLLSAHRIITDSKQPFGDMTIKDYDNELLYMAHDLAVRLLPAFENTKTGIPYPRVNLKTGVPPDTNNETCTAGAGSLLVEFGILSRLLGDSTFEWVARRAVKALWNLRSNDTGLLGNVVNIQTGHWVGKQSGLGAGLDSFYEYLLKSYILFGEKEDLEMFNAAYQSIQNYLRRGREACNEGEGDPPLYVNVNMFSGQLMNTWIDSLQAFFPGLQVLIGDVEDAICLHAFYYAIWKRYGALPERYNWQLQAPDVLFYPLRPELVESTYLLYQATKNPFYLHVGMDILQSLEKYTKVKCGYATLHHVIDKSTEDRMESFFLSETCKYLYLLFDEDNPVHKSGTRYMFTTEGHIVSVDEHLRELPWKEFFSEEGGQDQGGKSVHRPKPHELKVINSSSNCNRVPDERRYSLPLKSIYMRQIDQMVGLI

For experiment [2], the target named is HBV large (L) envelope protein (Hepatitis B virus (genome integrated in HepG2.2.2.15)).
The target of experiment [3] is HBV small (S) envelope protein (Hepatitis B virus (genome integrated in HepG2.2.2.15)).

No constants are given. Whether binding was seen depends on the method and setting. Binding seen in cells or lysates may run through a third protein. Binding calls can cover weak binding; strength is not graded here.

With HBV large (L) envelope protein, in experiment [1], the binding entry was “binds”.
On the same count and under the same terms, the entry for HBV small (S) envelope protein is “binds”.

B1: ER degradation-enhancing, mannosidase-like protein 1 (EDEM1), endogenous (protein, UniProt Q92611 1-657)
chain: T1 sequence
Regarding B1, the binding result in experiment [2] and in experiment [3] was “binds” in each case.
